Laboratory results as given in PubChem BioAssay AID1347076 (National Center for Advancing Translational Sciences (NCATS), 2019).
Out of some 400,000 compounds screened, about 13,000 (3.2%) were called active. Inconclusive means that the source gave no clear call. Such entries were picked first, then a sample of the others. Calls come from the whole dose curve; as a rule, active = well fitted cell-killing curve with a large enough effect; inconclusive = small, poorly fitted or top-dose-only effect, or effect the other way; inactive = flat fitted curve, though single readings scatter. Potencies beside an inconclusive call are fits to weak or partial responses and may not hold up.
% is set by controls: 0 for no effect and ±100 for the full control effect; potency is the fitted concentration of half-maximal effect.

Assay: qHTS assay for MDR1-selective chemotherapeutics: Primary screen using the drug-selected MDR subline cells KB-V1; note: nearly all actives have a fitted effect of over 60% in size
Conditions: KB-V1 MDR cells viability, CellTiter-Glo, 72 h; activity change, negative = cytotoxicity: at 46.1 µM (top of the series)
In short: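 Potencies derive from concentration-effect curves fitted to normalized luminescence (CellTiter-Glo) of KB-V1 cells treated for 72 h at 37 degrees C in phenol-red-free DMEM containing 10% FBS.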
With `COc1cc(NC(=O)COC(=O)c2cc(S(=O)(=O)N3CCCCC3)ccc2Cl)c(C)cc1[N+](=O)[O-]` the Potency was inconclusive: 14.6 µM [cytotoxic, partial curve, poor fit].
For `O=C(Nc1ccsc1C(=O)O)c1ccccc1Cl`, the Potency was “inactive”.
In the case of `Cc1onc(-c2ccccc2)c1C(=O)N/N=C/c1cc2c(cc1Cl)OCO2`, the Potency is reported as inconclusive: 18.4 µM [cytotoxic, single point].
With `CCOC(=O)C1(CCOc2ccccc2)CCN(Cc2ccc(F)c(OC)c2)CC1` the Potency was inconclusive: 16.4 µM [cytotoxic, partial curve, poor fit].
With `c1ccc2[nH]c(C3CC3)nc2c1` the Potency was inconclusive: 23.1 µM [rising, single point].
In the case of `Nc1nnc(-c2cccc([N+](=O)[O-])c2)o1`, the activity change, negative = cytotoxicity is reported as inconclusive: 24.3%.
For `CCCN(Cc1cc2cccc(C)c2[nH]c1=O)C(=O)c1cccc(OC)c1`, the Potency was inconclusive: 5.8 µM [cytotoxic, full curve, poor fit].
For `Cc1ccc(C)c(OCC(=O)NNC(=O)C2CCC2)c1`, the Potency was inconclusive: 0.082 µM [cytotoxic, full curve, poor fit].
For `Cc1cc(C)c(C)c(OCCCn2ccnc2)c1`, the Potency was “inactive”.
In the case of `CC(C)NC(=O)C(c1ccc(F)cc1)N(C(=O)CCC(=O)Nc1ccccn1)c1ccccc1F` (configuration not stated), the Potency is reported as inconclusive: 29.1 µM [cytotoxic, single point].
In the case of `CC(C)n1c2ccccc2c2cc([N+](=O)[O-])ccc21`, the Potency is reported as inconclusive: 23.1 µM [cytotoxic, single point].
In the case of `O=C(NNS(=O)(=O)c1ccccc1)c1cnn(-c2ccccc2)c1-n1cccc1`, the Potency is reported as active: 16.4 µM.
With `COc1ccc(Br)c(C(=O)N(C)CC(=O)Nc2ccc(N3CCOCC3)cc2)c1` the Potency was inconclusive: 16.4 µM [cytotoxic, single point].
For `O=c1cc(/C=C/c2ccccc2)oc2c1ccc1ccccc12`, the Potency was inconclusive: 13 µM [cytotoxic, single point].
In the case of `O=C1c2ccccc2C(c2nc3ccccc3[nH]2)N1Cc1ccco1` (configuration not stated), the Potency is reported as inconclusive: 29.1 µM [rising, single point].
With `CCCC(=O)C1=C(O)C(C(=O)OC)C(C)(C)CC1=Nc1cccc2ccccc12` (configuration not stated) the Potency was inconclusive: 23.1 µM [cytotoxic, single point].
With `O=C(NCc1ccccc1)c1ccc(C(=O)NCc2ccccc2)cc1` the Potency was “inactive”.
With `O=c1[nH]c2ccc(NCc3ccccc3OCc3ccc(Cl)cc3)cc2[nH]1` the Potency was “inactive”.
For `COc1ccc(/C=N/NC(=O)c2ccccc2)cc1CN1CCN(c2ccc(F)cc2)CC1`, the Potency was inconclusive: 0.731 µM [cytotoxic, partial curve].
With `Cc1ccc(-n2ncc3c(N4CCC(C(N)=O)CC4)ncnc32)c(C)c1` the Potency was “inactive”.
For `O=C(NNc1ccc(Cl)cc1)c1cccs1`, the Potency was “inactive”.
With `CSc1nsc(/C=C/Nc2ccc(F)cc2F)c1C#N` the Potency was “inactive”.
With `O=C(c1cccs1)N1CCN(c2nc3c(F)cc(F)cc3s2)CC1` the Potency was inconclusive: 20.6 µM [cytotoxic, single point].
With `COc1ccc(N2C(=S)NC(C)(C)CC2(C)c2ccc(OC(C)=O)cc2OC(C)=O)cc1` (configuration not stated) the Potency was “inactive”.
For `OC[C@H]1O[C@@H](c2nc(-c3ccccc3Br)no2)[C@H](O)[C@@H](O)[C@H]1O`, the Potency was “inactive”.
In the case of `O=C(CSCc1ccc(F)cc1)NC1CCCC1`, the Potency is reported as “inactive”.
With `CNS(=O)(=O)c1ccc(C(=O)NCC(=O)NCCc2ccc3c(c2)OCCO3)cc1` the Potency was inconclusive: 29.1 µM [rising, single point].
In the case of `Cc1ccsc1CNc1ncnc2ccc(-c3c(C)noc3C)cc12`, the Potency is reported as inconclusive: 29.1 µM [cytotoxic, single point].
With `COc1ccc(F)cc1-c1cc(C(=O)NCc2ccccc2)[nH]n1` the Potency was “inactive”.
With `COc1ccc(S(=O)(=O)c2c(Nc3ccc(F)cc3)sc(C(=O)c3ccc4c(c3)OCO4)c2N)cc1` the Potency was inconclusive: 3.66 µM [cytotoxic, partial curve, poor fit].
With `O=C(O)/C=C/C(=O)Nc1ccccc1SC(F)(F)F` the Potency was “inactive”.
In the case of `COc1ccc(Cl)cc1-c1nc(SCC(N)=O)n[nH]1`, the Potency is reported as “inactive”.
In the case of `Cc1cnc(NC(=O)CSc2nnc(-c3ccncc3)n2C2CCCCC2)s1`, the Potency is reported as inconclusive: 16.4 µM [cytotoxic, partial curve].
With `O=C(c1cccnc1)C1CCCN(Cc2nc(Cc3ccccc3)no2)C1` (configuration not stated) the Potency was inconclusive: 20.6 µM [cytotoxic, single point].
In the case of `O=C(Nc1ccc(F)cc1F)N1CCCN(c2ccc([N+](=O)[O-])cn2)CC1`, the Potency is reported as “inactive”.
In the case of `CN(C(=O)c1coc(=O)c2ccccc12)c1ccc(F)cc1`, the Potency is reported as “inactive”.
In the case of `COc1ccc(NC(=O)c2ccc(Oc3ncccn3)cc2)cc1`, the Potency is reported as inconclusive: 0.0082 µM [rising, full curve, poor fit].
With `COc1ccccc1NS(=O)(=O)c1cc(NC(=O)c2sccc2C)ccc1N1CCCC1` the Potency was inconclusive: 8.2 µM [cytotoxic, partial curve, poor fit].
With `C=C1c2ccccc2NC(=S)N1Cc1ccc2c(c1)OCO2` the Potency was inconclusive: 29.1 µM [cytotoxic, single point].
In the case of `Cc1ccc2c(c1)c1c(c(=O)n(Cc3ccccc3)c(=O)n1Cc1cccc(C(F)(F)F)c1)n2C`, the Potency is reported as “inactive”.
In the case of `CS(=O)(=O)N1CCC(C(=O)Nc2cccc(C(F)(F)F)c2)CC1`, the Potency is reported as “inactive”.
In the case of `CCN(CCn1cccn1)C(=O)c1cc(COc2ccc(F)cc2Cl)on1`, the Potency is reported as inconclusive: 16.4 µM [cytotoxic, partial curve].
In the case of `COC(=O)[C@]12CCCCC=C1N(Cc1ccccc1)C(=O)[C@H](CC(=O)NCC13CC4CC(CC(C4)C1)C3)C2`, the Potency is reported as inconclusive: 20.6 µM [cytotoxic, partial curve].
With `O=C(c1cnc(N2CCCCC2)c2ccccc12)N1CCN(c2ccccc2F)CC1` the Potency was “inactive”.
For `O=C1C(=Cc2ccccc2O)SC(=S)N1CCCN1CCOCC1`, the Potency was “inactive”.
With `O=C(NC1CCCCC1)C(c1ccccc1)N(C(=O)c1cccs1)c1ccc2c(c1)OCO2` (configuration not stated) the Potency was inconclusive: 2.91 µM [cytotoxic, partial curve, poor fit].
In the case of `CC(=O)Nc1ccc(N/C=C/C(=O)c2ccc(Br)cc2)cc1`, the Potency is reported as inconclusive: 18.4 µM [rising, single point].
